The supplement of paper PMC3334620
In all, about 33,000 sequences were measured (“E-score (-0.5 to 0.5)”: median about -8e-05, highest 2% from about 0.23 on). Some of the results follow.

Molecular target: T1, Nrg2 (UniProt P38082)
T1 sequence: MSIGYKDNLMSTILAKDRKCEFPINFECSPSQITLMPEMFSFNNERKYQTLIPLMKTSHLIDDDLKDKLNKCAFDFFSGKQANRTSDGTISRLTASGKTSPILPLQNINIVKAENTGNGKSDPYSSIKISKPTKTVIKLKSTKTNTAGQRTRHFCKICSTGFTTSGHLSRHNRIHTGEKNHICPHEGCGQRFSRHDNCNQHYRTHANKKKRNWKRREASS
Assay: PBM E-score (8-mer binding enrichment) (E-score (-0.5 to 0.5)); higher = stronger / more preferred TF binding
Conditions: protein concentration: 100 nM; construct: GST-full length
In short: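 Universal all-10-mer Agilent arrays, double-stranded by primer extension on fresh or once-stripped slides, were probed with about 100-200 nM GST-tagged yeast transcription factors made by PURExpress. Fluorescent anti-GST detected bound protein, and masliner normalised the scans. E-scores from the Universal PBM Analysis Suite were given to each ungapped eight-base word pooled with its reverse complement.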

| Sequence | PBM E-score |
| --- | --- |
| CCGAAAGG | 0.0391 |
| CACGACGG | 0.153 |
| CCTGTTCG | -0.00968 |
| AACTTCAT | 0.0274 |
| GGGATTCA | 0.0409 |
| TGTATGAA | -0.0766 |
| CTCGTATA | -0.0578 |
| CCAATGCA | 0.0514 |
| AGAGAAAC | 0.0693 |
| AGAACCCC | -0.0592 |
| TAACGTCA | 0.0193 |
| CTGGGGCA | -0.0148 |
| GCGAGAAA | 0.0215 |
| AACCGGCC | -0.0812 |
| GTGACTGA | 0.0434 |
| GTAAACGA | -0.165 |
| AAGGCGCA | 0.125 |
| CAATGAGG | -0.231 |
| AGTGCTAT | -0.0367 |
| CAATAGGC | -0.108 |
| CTGTATGC | -0.1 |
| GGGGGGAA | -0.341 |
| GAAAGATC | 0.121 |
| GAGGGGCA | -0.303 |
| GGAAGGTA | -0.205 |

Reformatted: entries from further up
Sequence | PBM E-score
GAAAGATC | 0.121
GAGGGGCA | -0.303

(listing goes on)

| Sequence | PBM E-score |
| --- | --- |
| GAGTAACC | 0.104 |
| CTAAGCGA | -0.0474 |
| ATGACTAC | -0.0387 |
| GCGCAGCA | -0.286 |
| GCTCCTAC | -0.0957 |
| CCAGTAAG | -0.099 |
| ACGTCCCA | -0.223 |
| AGCTAGGC | -0.0507 |
| CATGTCGC | -0.0964 |
| GGTACGGA | -0.0693 |
| AGGGTAGA | -0.0601 |
| ACTGCGAA | -0.122 |
| CGCCAACG | -0.0977 |
| ACAAGATA | 0.103 |
| AGCCCCCG | -0.407 |
| GGACGGAA | -0.0899 |
| GGTTGCCA | -0.00492 |
| GCAGCGAC | -0.177 |
| ACTGGCGC | 0.135 |
| CCCTTCTA | -0.0766 |
| CGCGGACG | -0.043 |
| AGCCGCCT | 0.0028 |
| GGCACAGA | -0.13 |
| ACTCTGAT | 0.0459 |
| GCTATCCC | -0.138 |

Part of the list above, as tab-separated lines.
Sequence	PBM E-score
GGTACGGA	-0.0693
AGGGTAGA	-0.0601
ACTGCGAA	-0.122
CGCCAACG	-0.0977

Next part.

| Sequence | PBM E-score |
| --- | --- |
| ACGCTTTG | -0.124 |
| AGCGTAAG | -0.0617 |
| AAGCAAAT | -0.018 |
| AGGACCAG | -0.0763 |
| ATCACGAG | -0.242 |
| CAGCCTAG | 0.0198 |
| ATCGTTGC | -0.115 |
| ATTGAACG | -0.0983 |
| CTGGTAAA | -0.0859 |
| ACCGTGGC | -0.107 |
| AATCAAAG | -0.0867 |
| ATGATGAC | 0.0196 |
| CAGGGCTA | -0.0464 |
| AACACATG | 0.169 |
| CTCAGCAA | 0.0227 |
| AATTAAAG | 0.129 |
| AGTCTATA | -0.136 |
| ACATTCCG | 0.00186 |
| GACGGCGA | -0.131 |
| AACGAAGT | -0.0818 |
| AAGCGAAA | 0.123 |
| CGCGCGAA | 0.157 |
| CCAGGAAA | 0.183 |
| AGAACGCG | 0.189 |
| ACCATCTG | -0.0508 |

| Sequence | PBM E-score |
| --- | --- |
| CCTTCCTA | -0.318 |
| CCACTGTC | 0.0103 |
| AGTTAAAG | 0.0216 |
| GCACACTA | 0.169 |
| TGCTAGCA | 0.0326 |
| CGCTTCTA | -0.044 |
| CCCGAAGG | -0.0101 |
| CCGCCTTC | -0.253 |
| GCGTTTAA | -0.0756 |
| AAGTGCGA | -0.187 |
| AACTGGAA | 0.05 |
| CGCCTTCA | -0.273 |
| CCGCTTGC | -0.131 |
| CATCAATC | -0.0356 |
| AGTGTGTG | -0.00931 |
| GAGGAACC | -0.0829 |
| ACGCACCT | -0.094 |
| CACCCCGC | 0.189 |
| ATACAGCC | 0.0802 |
| AATATGGA | 0.0669 |
| ATTGAGGC | 0.0357 |
| CATGGTTC | 0.0101 |
| CCATACCA | -0.107 |
| ATGGACCG | -0.00856 |
| CTTGTGAC | -0.108 |

| Sequence | PBM E-score |
| --- | --- |
| CAGGTTCC | 0.00626 |
| AGCTCAGA | -0.0214 |
| ACTTGGCC | -0.0839 |
| GGTCTTAC | -0.219 |
| GCGGTGTA | 0.0942 |
| AGATACCT | 0.0202 |
| CTAGAAAG | -0.0314 |
| TGAATGAA | 0.142 |
| CGACTTTA | -0.14 |
| ATATCAGC | 0.0872 |
| GGGCAATA | 0.0453 |
| AACGTGTA | -0.0437 |
| AAAGACGG | -0.0232 |
| GAACAACA | 0.00491 |
| AGAAGACG | 0.105 |
| CGGGCAGA | 0.0991 |
| CACTCAAA | 0.0606 |
| CTTTCTAC | 0.0876 |
| CAGTGCGG | 0.11 |
| TCATTACA | 0.0581 |
| CTAAACTC | -0.138 |
| AGATTACT | 0.0391 |
| ATTACATA | 0.0153 |
| ATAATGGG | 0.125 |
| ATATGTAA | 0.0105 |

| Sequence | PBM E-score |
| --- | --- |
| CAAGATAA | 0.0457 |
| CGGACGAC | -0.061 |
| ACTCCGTA | -0.0561 |
| AGACCAGC | -0.182 |
| ATCGAAAT | 0.0963 |
| CTGTAATC | 0.0655 |
| AGAGATCA | -0.0543 |
| ACGGAACT | 0.101 |
| CAAGTTCG | -0.13 |
| ATCGACTA | 0.0466 |
| ACCCAAGG | 0.0922 |
| TAACGGGA | -0.162 |
| CAAGATGA | 0.0666 |
| TATCAGCA | 0.0256 |
| GCTCCGAC | -0.275 |
| ATCTGGGC | -0.109 |
| ATTCTGCA | 0.0674 |
| ATGCGCCA | 0.122 |
| AGACGTTC | -0.0449 |
| GTCAAGAC | -0.183 |
| CCAAACCG | 0.0752 |
| ACCTAAAG | -0.00458 |
| GACCGCAC | -0.0895 |
| CTTATCGC | -0.0611 |
| TGGCACCA | -0.144 |

| Sequence | PBM E-score |
| --- | --- |
| ACGGTTCC | -0.0941 |
| ATTGTGGG | 0.0492 |
| GCAGTCCA | 0.0622 |
| AGCGCGAT | 0.194 |
| CCAATTCG | -0.0563 |
| ATTTCGCA | 0.274 |
| AAGGTCTG | -0.0169 |
| AGTAAGCC | -0.134 |
| AGATAAGC | -0.189 |
| CGTAAGTA | -0.0243 |
| CTCACATC | 0.0607 |
| CCCAAAGG | -0.18 |
| AGGGAGAA | 0.0297 |
| CAACCAAA | -0.00518 |
| ACAAGTAG | -0.104 |
| AACTCTAC | -0.162 |
| CCACTACA | 0.045 |
| CATTGCTA | 0.118 |
| CCTCTTAA | 0.179 |
| AAATGCGC | 0.272 |
| GTGCAATA | -0.0407 |
| AACCGTTA | -0.273 |
